From EP4663659A1
Results are given in words; binding and its absence hold for the method and conditions named. Some results given as binding are weak or reduced against the parent protein; the word gives no strength.

Chains of the proteins cited; added tags and fusions are not shown. Lines headed by an entry give the natural chain unless they say otherwise; changes in a name come on top.
UniProt P25942: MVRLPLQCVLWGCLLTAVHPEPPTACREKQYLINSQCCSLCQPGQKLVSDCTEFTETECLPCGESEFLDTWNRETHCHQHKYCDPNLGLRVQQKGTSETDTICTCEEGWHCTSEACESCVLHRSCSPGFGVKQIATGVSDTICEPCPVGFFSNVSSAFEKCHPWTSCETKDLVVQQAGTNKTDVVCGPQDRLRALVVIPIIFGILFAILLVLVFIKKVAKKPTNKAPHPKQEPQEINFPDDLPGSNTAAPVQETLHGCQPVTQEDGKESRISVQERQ

Target: CD40 (as used in epitope binning / Octet BLI) (human) (UniProt P25942)
Assay: epitope binning or Octet biolayer interferometry

B1: CD40 VHH of FP1 (anti-human CD40 VHH) (VHH)
VHH: EVQLVESGGGVVQPGGSLRLSCAASGFTFSSATMGWFRQAPGKGLEWVAYISSVGGGTDYADSVKGRFTISRDNAKNTLYLQMNSLRAEDTAVYYCVTMRSIRNPDFGSRGQGTLVTVSS
With B1 the binding was “binds”.
